Results from PMC7565962.
These are yes or no findings as the source states them, for the method shown. In cells and extracts the contact can be indirect. These calls come from enrichment with a bait or labelling near it, and not all partners need be listed.

Chains of the proteins cited; added tags and fusions are not shown.
UniProt P67809: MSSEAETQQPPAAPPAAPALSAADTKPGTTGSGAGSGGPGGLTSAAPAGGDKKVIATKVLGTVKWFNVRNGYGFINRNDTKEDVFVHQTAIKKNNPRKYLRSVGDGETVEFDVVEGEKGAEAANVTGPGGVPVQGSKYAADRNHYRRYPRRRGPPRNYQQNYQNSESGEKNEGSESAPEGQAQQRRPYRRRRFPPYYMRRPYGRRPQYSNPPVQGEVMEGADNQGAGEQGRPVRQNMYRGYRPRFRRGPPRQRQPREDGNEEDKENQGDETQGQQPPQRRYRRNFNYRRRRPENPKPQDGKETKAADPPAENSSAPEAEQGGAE
UniProt P26038: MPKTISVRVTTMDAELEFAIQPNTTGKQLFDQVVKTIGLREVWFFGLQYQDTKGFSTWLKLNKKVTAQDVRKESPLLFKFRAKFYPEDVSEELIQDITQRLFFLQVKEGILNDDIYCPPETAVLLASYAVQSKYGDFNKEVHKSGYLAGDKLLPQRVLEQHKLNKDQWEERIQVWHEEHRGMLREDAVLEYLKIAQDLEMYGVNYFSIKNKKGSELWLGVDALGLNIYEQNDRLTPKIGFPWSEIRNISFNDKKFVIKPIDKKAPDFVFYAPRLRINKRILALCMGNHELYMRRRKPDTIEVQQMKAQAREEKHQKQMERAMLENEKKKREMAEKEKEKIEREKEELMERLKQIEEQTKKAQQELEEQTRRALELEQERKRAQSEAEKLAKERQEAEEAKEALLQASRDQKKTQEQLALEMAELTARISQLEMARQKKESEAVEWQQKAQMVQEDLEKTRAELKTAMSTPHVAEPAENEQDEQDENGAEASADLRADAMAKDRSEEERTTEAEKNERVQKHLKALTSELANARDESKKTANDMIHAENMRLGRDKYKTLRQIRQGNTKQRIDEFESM
UniProt P68363: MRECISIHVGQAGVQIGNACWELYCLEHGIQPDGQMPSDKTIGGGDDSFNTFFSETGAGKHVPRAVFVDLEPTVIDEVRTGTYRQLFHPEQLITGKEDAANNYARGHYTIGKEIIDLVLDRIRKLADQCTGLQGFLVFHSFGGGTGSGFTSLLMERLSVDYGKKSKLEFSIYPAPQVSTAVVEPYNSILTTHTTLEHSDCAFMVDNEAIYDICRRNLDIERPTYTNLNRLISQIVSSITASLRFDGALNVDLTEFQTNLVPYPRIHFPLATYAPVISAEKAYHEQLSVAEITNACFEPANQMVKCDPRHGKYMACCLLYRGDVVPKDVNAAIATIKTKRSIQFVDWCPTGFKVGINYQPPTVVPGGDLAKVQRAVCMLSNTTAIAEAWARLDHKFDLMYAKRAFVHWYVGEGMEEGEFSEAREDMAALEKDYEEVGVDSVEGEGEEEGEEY
UniProt P68371: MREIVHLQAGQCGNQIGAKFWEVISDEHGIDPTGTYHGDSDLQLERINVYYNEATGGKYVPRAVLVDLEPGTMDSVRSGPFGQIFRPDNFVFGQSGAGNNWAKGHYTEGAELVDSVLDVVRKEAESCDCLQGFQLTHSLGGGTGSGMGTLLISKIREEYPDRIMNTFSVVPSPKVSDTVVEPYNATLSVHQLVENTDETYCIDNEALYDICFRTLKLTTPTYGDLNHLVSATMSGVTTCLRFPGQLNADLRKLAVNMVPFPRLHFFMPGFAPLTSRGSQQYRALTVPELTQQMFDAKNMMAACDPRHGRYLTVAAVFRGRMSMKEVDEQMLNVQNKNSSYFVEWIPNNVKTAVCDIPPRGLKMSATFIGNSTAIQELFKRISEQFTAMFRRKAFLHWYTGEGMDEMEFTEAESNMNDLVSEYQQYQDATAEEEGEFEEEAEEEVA
UniProt P07437: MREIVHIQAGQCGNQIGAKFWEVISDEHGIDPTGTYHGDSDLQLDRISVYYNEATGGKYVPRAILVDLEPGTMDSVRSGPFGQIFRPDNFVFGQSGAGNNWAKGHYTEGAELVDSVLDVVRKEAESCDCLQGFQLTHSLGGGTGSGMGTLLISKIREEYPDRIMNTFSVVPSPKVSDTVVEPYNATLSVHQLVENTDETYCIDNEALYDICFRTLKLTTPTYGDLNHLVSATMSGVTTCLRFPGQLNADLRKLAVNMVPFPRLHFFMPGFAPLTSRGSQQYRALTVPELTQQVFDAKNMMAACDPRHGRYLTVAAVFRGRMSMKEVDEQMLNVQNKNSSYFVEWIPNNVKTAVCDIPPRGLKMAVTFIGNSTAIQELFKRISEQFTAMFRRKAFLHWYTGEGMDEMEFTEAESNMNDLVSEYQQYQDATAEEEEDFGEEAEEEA

Target: Y-box binding protein 1 (YB-1) (human (endogenous in A549 and MDA-MB-231)) (UniProt P67809)
Test: affinity purification with mass spectrometry; endogenous YB-1 immunoprecipitated with anti-YB-1 (N-terminal) antibody on protein G beads from A549 and MDA-MB-231 lysates in low-detergent RIPA, without cross-linking, and from MDA-MB-231 after in vivo DSP cross-linking; eluted with the immunising peptide; SDS-PAGE, in-gel trypsin digestion, LC-MS/MS

binding | Substance
binds | moesin (MSN) (from UniProt P26038 1-577)
binds | tubulin TUBA1B (from UniProt P68363 1-451)
binds | tubulin TUBB4B (from UniProt P68371 1-445)
binds | tubulin TUBB (from UniProt P07437 1-444)
